Laboratory results reported in ChEMBL document CHEMBL5500373, “Lead optimization based design, synthesis, and pharmacological evaluation of quinazoline derivatives as multi-targeting agents for Alzheimer's disease treatment” (Eur J Med Chem, 2024).

Test: in vitro
Settings: PAMPA

COc1cc2c(cc1OC)C(=O)C(CC1CCN(Cc3ccccc3)CC1)C2 (stereo unspecified) [DONEPEZIL]
Papp at 18 h, 25 ug/ml: 6.53 ×10⁻⁶ cm/s
